Test results as given in patent EP4778941A1 (priority 2023, dated 2025).

Assay: general procedure: solution-phase peptide synthesis; 4-(4,6-dimethoxy-1,3,5-triazin-2-yl)-4-methylmorpholinium chloride
Details: coupling step, UPLC, ACQUITY UPLC BEHC18 1.7 µm […] 50 mm; run 1

Substance: N-((2S,10S)-10-Benzyl-2-cyclopropyl-1-(((1S,9S)-9-ethyl-5-fluoro-9-hydroxy-4-methyl -10,13-dioxo-2,3,9,10,13,15-hexahydro-1H,12H-benzo[de]pyrano[3',4':6,7]indolizino[1, 2-b]quinolin-1-yl)amino)-1,6,9,12,15-pentaoxo-3-oxa-5,8,11,14-tetraazahexadec-16-yl) -6-(2,5-dioxo-2,5-dihydro-1H-pyrrol-1-yl)hexan [9-A]
- final HPLC purity: 85%

Substance: N-((2S,10S)-10-Benzyl-2-cyclopropyl-1-(((1S,9S)-9-ethyl-5-fluoro-9-hydroxy-4-methyl -10,13-dioxo-2,3,9,10,13,15-hexahydro-1H,12H-benzo[de]pyrano[3',4':6,7]indolizino[1, 2-b]quinolin-1-yl)amino)-1,6,9,12,15-pentaoxo-3-oxa-5,8,11,14-tetraazahexadec-16-yl) -6-(2,5-dioxo-2,5-dihydro-1H-pyrrol-1-yl)hexan [9-B]
- final HPLC purity: 89%
